PubChem BioAssay AID504804 – Drosophila RNAi Screening Center, 2011
In all, the deposit lists about 19,000 reagents; below is a random part of those that have a named target and a result. In the full data, 47 (0.25%) are marked active. 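Signals are raw, not normalised; exact z-scores behind calls not deposited; actives needed confirmation, so some wells reaching 2 SD are inactive.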 A number with no mark means an inactive call. Reagents against one gene are numbered here.

Assay: 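Knock-downs shielding fly cells from apoptosis caused by DNA damage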 (primary screen)
Cells: Drosophila Kc cells
Reagents: long dsRNA against Drosophila genes, 0.5 µg dsRNA per well
Duration: 96 h (48 h knock-down, then 48 h drug)
Challenge: doxorubicin 5 µg/ml for 48 h, added 48 h after dsRNA
Measured: 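Luminescent ATP counts per replicate, not normalised, reflecting viable cells after 48 h dsRNA knock-down followed by 48 h of 5 µg/ml doxorubicin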
Reading the numbers: raw ATP luminescence: higher = more viable cells, protection from doxorubicin
Call rule: 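z-score of 2 or more over plate mean in both duplicates, retained only when retests and separate dsRNAs confirm the protection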

{"gene": "Gr85a", "reagent": 1, "raw ATP luminescence, replicate 1": 75470, "raw ATP luminescence, replicate 2": 73147}
{"gene": "RhoGAP19D", "reagent": 1, "raw ATP luminescence, replicate 1": 3.21e5, "raw ATP luminescence, replicate 2": 3.46e5}
{"gene": "DIP-beta", "reagent": 1, "raw ATP luminescence, replicate 1": 2.19e5, "raw ATP luminescence, replicate 2": 1.89e5}
{"gene": "DIP-beta", "reagent": 2, "raw ATP luminescence, replicate 1": 3.42e5, "raw ATP luminescence, replicate 2": 2.77e5}
{"gene": "DIP-beta", "reagent": 3, "raw ATP luminescence, replicate 1": 3.42e5, "raw ATP luminescence, replicate 2": 3.40e5}
{"gene": "DIP-beta", "reagent": 4, "raw ATP luminescence, replicate 1": 3.78e5, "raw ATP luminescence, replicate 2": 2.81e5}
{"gene": "CG12620", "reagent": 1, "raw ATP luminescence, replicate 1": 66270, "raw ATP luminescence, replicate 2": 68490}

Reprinted from the entries so far for reference:
{"gene": "DIP-beta", "reagent": 4, "raw ATP luminescence, replicate 1": 3.78e5, "raw ATP luminescence, replicate 2": 2.81e5}
{"gene": "CG12620", "reagent": 1, "raw ATP luminescence, replicate 1": 66270, "raw ATP luminescence, replicate 2": 68490}

Additional reagents:
{"gene": "Tsp42Er", "reagent": 1, "raw ATP luminescence, replicate 1": 33390, "raw ATP luminescence, replicate 2": 62370}
{"gene": "Nulp1", "reagent": 1, "raw ATP luminescence, replicate 1": 47500, "raw ATP luminescence, replicate 2": 40277}
{"gene": "croc", "reagent": 1, "raw ATP luminescence, replicate 1": 69427, "raw ATP luminescence, replicate 2": 63477}
{"gene": "Adgf-B", "reagent": 1, "raw ATP luminescence, replicate 1": 34380, "raw ATP luminescence, replicate 2": 31560}
{"gene": "Arl5", "reagent": 1, "raw ATP luminescence, replicate 1": 32597, "raw ATP luminescence, replicate 2": 34603}
